For at least one compound, name, drawing or mass did not settle the structure. Some entries share one result that the patent states for a list of compounds.
Assays:
[1] = MDA-MB-468 tumors
[2] = in vitro stability in human sera (ITLC); details: 37° C., five days (120 h)

What does the source list for `CC(C)NCCCn1c(Sc2cc3c(cc2[124I])OCO3)nc2c(N)ncnc21` [[^124I]-PU-H71]?
halftime of slow terminal clearance phase from tumors [1]: ~60 h; stable in human sera [2]: > 98%

From patent US9555137B2, “Uses of labeled HSP90 inhibitors” (Sloan-Kettering Institute for Cancer Research, priority 2011, dated 2017)
